This data set is described as follows: general procedure: Fmoc solid-phase peptide synthesis; Rink Amide resin, Rink Amide AM resin LL, Fmoc-Asp-(NovaSyn TGA)-OAll resin; HBTU/DIPEA; PyBOP or HBTU for cyclization. The settings on record: conjugation step.

Consider c(RGDfK)-pyrylium-NODA-GA, for which the conjugation yield is recorded as 38% and the “final HPLC purity” value came out at 99%.

Consider c(RGDfK)-dansyl-NODA-GA, for which the conjugation yield is 49% and the “final HPLC purity” value came to 99%.

Take Nle-c(DHfRWK)-NODA-GA: the conjugation yield is 52% and the “final HPLC purity” value turned out to be 98%.

In the case of c(RGDfK)-cyanine-NODA-GA, the conjugation yield was 33% and the “final HPLC purity” value came out at 99%.

For Nle-c(DHfRWK)-pyrylium-NODA-GA, the conjugation yield came to 70% and the “final HPLC purity” value is 99%.

With Nle-c(DHfRWK)-cyanine-NODA-GA, the conjugation yield amounted to 82% and the “final HPLC purity” value is given as 99%.

Regarding c(RGDfK)-NODA-GA, the conjugation yield was 23% and the “final HPLC purity” value is given as 97%.

In the case of Nle-c(DHfRWK)-dansyl-NODA-GA, the conjugation yield is on record as 47% and the “final HPLC purity” value is 98%.

The values are drawn from publication PMC8541144 (Pharmaceuticals, 2021).
